In US5889029A, “Use of cotinine in treating psychiatric disorders” (priority 1997, dated 1999):

Target: Serotonin (Non-Selective)
Test: Serotonin (Non-Selective) Binding Assay
Details: reference compounds; Rat cortical membranes; [3H]Lysergic acid diethylamide

`O=C(CCCN1CCC2(CC1)C(=O)NCN2c1ccccc1)c1ccc(F)cc1` [Spiperone, reference compound] showed a Ki of 18 nM.
